Amino acid sequences for entries named in this document (tags omitted). A change or cut given only in a name is not applied to a line headed by its entry.
UniProt Q0JL44: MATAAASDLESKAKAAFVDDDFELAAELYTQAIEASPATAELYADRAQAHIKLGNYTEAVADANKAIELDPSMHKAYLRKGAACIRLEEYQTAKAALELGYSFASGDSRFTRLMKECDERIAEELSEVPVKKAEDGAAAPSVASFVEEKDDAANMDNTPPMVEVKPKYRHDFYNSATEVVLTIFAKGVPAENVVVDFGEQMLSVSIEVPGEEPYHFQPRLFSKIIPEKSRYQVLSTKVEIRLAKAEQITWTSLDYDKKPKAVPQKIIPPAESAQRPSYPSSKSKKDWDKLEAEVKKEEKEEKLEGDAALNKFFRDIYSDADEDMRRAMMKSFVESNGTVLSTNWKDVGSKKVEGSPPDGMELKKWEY

In article PMC6848426 (Rice, 2019):

Key:
[1] = target: T1, BD-OsSAPK9 (rice (Oryza sativa L.)) (UniProt Q75V57); experiment: two-hybrid
T1 sequence: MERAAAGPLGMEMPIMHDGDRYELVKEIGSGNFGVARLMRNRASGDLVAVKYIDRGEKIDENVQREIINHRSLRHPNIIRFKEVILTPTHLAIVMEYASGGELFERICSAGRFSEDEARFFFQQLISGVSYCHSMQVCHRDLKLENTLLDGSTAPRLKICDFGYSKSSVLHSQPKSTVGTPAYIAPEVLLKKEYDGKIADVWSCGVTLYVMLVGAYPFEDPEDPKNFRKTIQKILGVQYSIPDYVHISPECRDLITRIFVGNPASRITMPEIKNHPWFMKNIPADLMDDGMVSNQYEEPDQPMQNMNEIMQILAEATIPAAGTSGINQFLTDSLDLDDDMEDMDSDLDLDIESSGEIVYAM

[2] = target: T2, NYFP-OsSAPK9 (rice (Oryza sativa L.)) (UniProt Q75V57); experiment: split reporter; BiFC in Agrobacterium-infiltrated N. benthamiana leaves, NYFP and CCFP fusions, confocal microscopy 48-72 h after infiltration
T2 sequence: T1 sequence

| binding [1] | binding [2] | Substance |
| --- | --- | --- |
| binds | – | ΔSGS of OsSGT1 (yeast two-hybrid) (from UniProt Q0JL44) (domain or fragment) |
| – | binds | CCFP-OsHsp90 (from UniProt Q69QQ6) |

No constants are given. Whether binding was seen depends on the method and setting. A result given as binding can be weak or reduced; the word gives no strength. Tags and fused reporters may be left off the sequences shown. For some assays here: In cells and extracts the contact can be indirect.
